Measured values from PMC9968297.
These are yes or no findings as the source states them, for the method shown. For some assays here: Binding seen in cells or lysates may run through a third protein. Some results given as binding are weak or reduced against the parent protein; the word gives no strength.

Protein sequences, listed by entry. Tags and fused reporters are not part of them.
UniProt Q9NP77: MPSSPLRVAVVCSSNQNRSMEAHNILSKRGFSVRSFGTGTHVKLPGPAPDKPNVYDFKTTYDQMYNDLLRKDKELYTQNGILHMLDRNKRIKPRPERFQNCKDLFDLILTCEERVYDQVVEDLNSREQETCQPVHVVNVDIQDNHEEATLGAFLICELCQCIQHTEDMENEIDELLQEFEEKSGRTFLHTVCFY
UniProt P05198: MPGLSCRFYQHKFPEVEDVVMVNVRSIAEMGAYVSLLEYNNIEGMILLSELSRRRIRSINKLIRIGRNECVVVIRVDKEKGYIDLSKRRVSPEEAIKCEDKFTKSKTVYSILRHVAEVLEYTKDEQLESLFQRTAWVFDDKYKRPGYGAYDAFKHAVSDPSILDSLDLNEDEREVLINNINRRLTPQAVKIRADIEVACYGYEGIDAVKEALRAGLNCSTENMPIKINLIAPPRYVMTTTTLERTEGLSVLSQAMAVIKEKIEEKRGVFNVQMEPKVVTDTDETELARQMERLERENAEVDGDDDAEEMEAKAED

Assays:
[1] = target: Myc-tagged Ssu72 (UniProt Q9NP77); assay: co-IP; 293T cells transfected with Myc-Ssu72 and HA-eIF2α; 500 μg lysate in IP lysis buffer (20 mM Tris-HCl pH 7.4, 150 mM NaCl, 1% Triton X-100, 1 mM EDTA, 1 mM EGTA) immunoprecipitated with anti-Myc antibody overnight at 4 °C, protein A/G agarose; immunoblot
[2] = target: GST-fused eIF2α (UniProt P05198); assay: pull-down; bead bound GST-eIF2α (2 μg) incubated with His-Ssu72 WT (2 μg) in 20 mM Tris-HCl pH 7.4, 100 mM NaCl, 0.5% NP-40, 1 mM EDTA, 1 mM DTT with glutathione beads, 3 h at 4 °C; washed with 150 mM NaCl, 1% NP-40 buffer; both purified

Substance	binding [1]	binding [2]
HA-tagged eIF2α (from UniProt P05198 1-315)	binds	–
His-tagged Ssu72 (from UniProt Q9NP77 1-194) (enzyme)	–	binds
